Reference: PMC4007430
These are yes or no findings as the source states them, for the method shown. Some results given as binding are weak or reduced against the parent protein; the word gives no strength.

Sequences of proteins named here, by UniProt entry; tags and fusion partners are left off. Residues count along the entry.
UniProt P41597: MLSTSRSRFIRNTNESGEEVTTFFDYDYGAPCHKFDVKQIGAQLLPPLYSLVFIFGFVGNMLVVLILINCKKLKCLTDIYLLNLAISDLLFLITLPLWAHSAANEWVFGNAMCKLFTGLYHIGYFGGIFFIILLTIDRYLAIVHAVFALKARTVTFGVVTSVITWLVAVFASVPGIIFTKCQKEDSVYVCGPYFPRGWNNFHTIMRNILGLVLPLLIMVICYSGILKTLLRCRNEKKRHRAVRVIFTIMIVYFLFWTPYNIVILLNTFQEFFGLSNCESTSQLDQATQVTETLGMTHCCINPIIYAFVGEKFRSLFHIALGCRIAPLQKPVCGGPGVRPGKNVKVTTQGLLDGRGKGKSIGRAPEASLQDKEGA
UniProt P13500, residues 24-99: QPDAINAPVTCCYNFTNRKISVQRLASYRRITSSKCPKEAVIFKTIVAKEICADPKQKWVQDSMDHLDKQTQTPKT

Target: CCR2 expressed on THP1 cells (human (endogenous in THP-1)) (UniProt P41597)
Assay: flow cytometry on cells; competition: 60 ng/well Alexa-CCL2 with 1 μg ACKR2-N(s) or ACKR2-N(un-s), added together or precomplexed 15 min at room temperature in PBS, 1 h at 37 °C; HEK ACKR2 cells or THP1 cells; the chemokine and the receptor on cells; only the binder purified

- binding: binds
Substance: CCL2 labeled with Alexa Fluor 647 (from UniProt P13500 24-99) (ligand)
